Data as given in PubChem BioAssay AID743121 (NCATS, 2013).
Assay: 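Genes whose silencing strengthens cell killing by camptothecin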 (primary screen). System: MDA-MB-231 cells, a human breast cancer line. Reagents: single siRNA against human genes, 20 nM siRNA (0.8 pmol per well). Duration: 120 h (drug added 48 h after transfection, read 72 h later). Challenge: camptothecin 20 nM (about EC30) for 72 h; vehicle 0.1% DMSO in parallel plates. Measurement: 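CellTiter-Glo ATP signal, scaled to control siRNA as percent viability; sensitisation given as log2 of untreated divided by camptothecin-treated viability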. Reading the numbers: log2 vehicle/camptothecin viability: higher = stronger sensitisation to camptothecin; viability with camptothecin and viability without drug: higher = more viable cells. Call rule: 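Active genes have an RSA gene-level p-value below 0.001, computed from the ratios of their separate siRNAs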.
In all, the deposit lists about 26,000 reagents; shown is a part drawn at random. 167 of all reagents (0.63%) were called active. 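Calls are per gene from RSA p-values that are not deposited; an individual active-marked siRNA can sensitise only weakly.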 A number with no mark means an inactive call. Reagents against one gene are numbered here.

Gene	reagent no.	log2 vehicle/camptothecin viability	viability with camptothecin (% of control)	viability without drug (% of control)
MRPS12 (mitochondrial ribosomal protein S12)	1	-0.308	56.5	45.7
MRPS12 (mitochondrial ribosomal protein S12)	2	-0.355	60.5	47.3
MRPS12 (mitochondrial ribosomal protein S12)	3	0.588	67.1	101
MRPS12 (mitochondrial ribosomal protein S12)	4	-0.149	68.3	61.6
MGMT (O-6-methylguanine-DNA methyltransferase)	1	0.0807	82.3	87.1
MGMT (O-6-methylguanine-DNA methyltransferase)	2	0.2	81.8	94
MGMT (O-6-methylguanine-DNA methyltransferase)	3	0.0637	95.9	100
MGMT (O-6-methylguanine-DNA methyltransferase)	4	-0.652	95.9	61
KCNH4 (potassium voltage-gated channel subfamily H member 4)	1	-0.336	113	89.7
KCNH4 (potassium voltage-gated channel subfamily H member 4)	2	-0.394	48.4	36.9
KCNH4 (potassium voltage-gated channel subfamily H member 4)	3	-0.194	46.3	40.5
KCNH4 (potassium voltage-gated channel subfamily H member 4)	4	-0.624	50.9	33
JMJD1C (jumonji domain containing 1C)	1	-0.0439	118	114
JMJD1C (jumonji domain containing 1C)	2	-0.575	19.7	13.2
JMJD1C (jumonji domain containing 1C)	3	-0.157	109	97.6
JMJD1C (jumonji domain containing 1C)	4	-0.153	85.3	76.7
CD79B (CD79b molecule)	1	-0.393	56.9	43.3
CD79B (CD79b molecule)	2	0.659	30.8	48.7
CD79B (CD79b molecule)	3	-0.224	29.1	25
RASSF4 (Ras association domain family member 4)	1	-0.0224	82.7	81.4
RASSF4 (Ras association domain family member 4)	2	0.244	76.4	90.5
RASSF4 (Ras association domain family member 4)	3	-0.402	80.7	61.1
RASSF4 (Ras association domain family member 4)	4	-0.198	103	90.1
SPHKAP (SPHK1 interactor, AKAP domain containing)	1	-0.114	104	96.2
SPHKAP (SPHK1 interactor, AKAP domain containing)	2	-0.267	114	94.8
SPHKAP (SPHK1 interactor, AKAP domain containing)	3	-0.142	77.2	70
SPHKAP (SPHK1 interactor, AKAP domain containing)	4	1.11	32.3	69.9
RANBP2 (RAN binding protein 2)	1	0.0277	66.2	67.4
RANBP2 (RAN binding protein 2)	2	-0.0233	98.2	96.6
RANBP2 (RAN binding protein 2)	3	-0.356	81.9	64
RANBP2 (RAN binding protein 2)	4	-0.077	77.9	73.8
MS4A4A (membrane spanning 4-domains A4A)	1	0.0184	36.5	36.9
MS4A4A (membrane spanning 4-domains A4A)	2	-0.228	32.8	28
MS4A4A (membrane spanning 4-domains A4A)	3	0.321	54.4	67.9
MS4A4A (membrane spanning 4-domains A4A)	4	-0.315	77.9	62.6
GOSR1 (golgi SNAP receptor complex member 1)	1	0.17	55.7	62.7
GOSR1 (golgi SNAP receptor complex member 1)	2	-0.173	116	103
GOSR1 (golgi SNAP receptor complex member 1)	3	-0.0362	51.4	50.1
GOSR1 (golgi SNAP receptor complex member 1)	4	-0.248	108	91
TLR3 (toll like receptor 3)	1	-0.589	55.7	37
TLR3 (toll like receptor 3)	2	0.549	79.2	116
TLR3 (toll like receptor 3)	3	0.241	80.5	95.2
TLR3 (toll like receptor 3)	4	0.928	38.8	73.8
AKR1B1 (aldo-keto reductase family 1 member B)	1	-0.359	83.6	65.2
AKR1B1 (aldo-keto reductase family 1 member B)	2	-0.185	62.2	54.7
AKR1B1 (aldo-keto reductase family 1 member B)	3	-0.226	87	74.4
AKR1B1 (aldo-keto reductase family 1 member B)	4	-0.339	77.7	61.4
